For eight compounds, z-score and AC50 results are on record in PubChem BioAssay (NCATS).

The structures appear in SMILES notation. The list shows a part of the results. Further columns of the screen follow, without active or inactive calls. Compounds called inactive in the main read-out are mostly missing here. Potencies come from curve fits of mixed quality, noted in brackets.

A short description of this assay: qHTS for identification of novel therapeutic agents for treatment of microphthalmiaassociated transcription factor (MiT) renal cell carcinoma (RCC) (AID 1963991). Conditions: CellTiter-Glo, 48 h; for z-score: stronger effect = lower value. The method in brief:
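Viability of three TFE3-fusion renal carcinoma lines measured by CellTiter-Glo after 48 h treatment with each of 1912 compounds at 11 concentrations. Responses scaled between DMSO (100%) and empty wells (0%) before curve fitting.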
(Quantitative high-throughput screening tests each substance at several concentrations.)

[1] abbreviates: TFE3-RCC UOK109 viability, measured here: UOK109 Z-AUC.
Where [2] appears, read: TFE3-RCC viability, measured here: UOK124 Z-AUC.
Where [3] appears, read: TFE3-RCC viability, measured here: UOK124 cell viability.
[4] abbreviates: TFE3-RCC viability, measured here: UOK145 Z-AUC.
Setting [5] is: TFE3-RCC viability, measured here: UOK145 cell viability.

For `CCCCCN(CCC12CC3CC(CC(C3)C1)C2)C(=O)NCCCc1ccncc1`, the z-score under setting [1] came out at 0.574, the z-score under setting [2] was -0.116 and the z-score under setting [4] worked out at 0.376. Moreover, the AC50 (usually the midpoint of the concentration-response curve, whichever way the signal moves) under setting [3] was 18.7 µM [falling, partial curve].
As to `O=C1NC(=O)C(=Cc2ccc3nccnc3c2)S1`, the z-score under setting [1] came out at 0.527, the z-score under setting [2] is -0.871 and the z-score under setting [4] was found to be 0.993. For the same compound, the concentration at half-maximal activity (AC50) under setting [5] is 8.12 µM [falling, partial curve].
For `COc1ccc(C2Sc3ccccc3N(CCN(C)C)C(=O)C2OC(C)=O)cc1` (configuration not stated), the z-score is, setting by setting: under setting [1], 0.82; under setting [2], 0.112; under setting [4], 0.481. In addition, the AC50 under setting [5] is 20.9 µM [falling, single point].
Turning to `Cc1coc2c1C(=O)C(=O)c1c-2ccc2c(C)cccc12`, the z-score was 0.86 under setting [1], 0.193 under setting [2] and -0.379 under setting [4]. Besides, the half-maximal activity concentration (AC50) under setting [3] was 1.32 µM [falling, full curve, poor fit].
Compound `Cc1ccnc2c1NC(=O)c1cccnc1N2C1CC1` displayed a z-score under setting [1] of 0.182, a z-score under setting [2] of 0.168 and a z-score under setting [4] of 0.354. The AC50 under setting [5] is 33.2 µM [falling, single point].
For the compound `CC(=O)O[C@]1(C(C)=O)CC[C@@H]2[C@@H]3C[C@H](C)C4=CC(=O)CC[C@]4(C)[C@H]3CC[C@@]21C`, the z-score runs as follows: under setting [1], 0.59; under setting [2], 0.371; under setting [4], 1.39. The AC50 under setting [5] is 26.4 µM [falling, partial curve].
Consider `OC[C@H]1O[C@@H](Oc2ccc(O)cc2)[C@H](O)[C@@H](O)[C@H]1O`, for which the z-score reads like this: under setting [1], 0.734; under setting [2], 0.108; under setting [4], 0.734. Besides, the AC50 under setting [5] was 33.2 µM [falling, single point].
The compound `CN[C@@H](C)[C@H]1[C@H](O)C[C@@]2(C)[C@@H]3CC[C@H]4C(C)(C)[C@@H](NC)CC[C@@]45C[C@@]35CC[C@]12C` registered a z-score under setting [1] of 0.218, a z-score under setting [2] of 0.226 and a z-score under setting [4] of 0.312. Besides, the AC50 under setting [5] was 23.5 µM [falling, partial curve, poor fit].
